Measurements as given in patent publication US20220395481A1, “BACTERIOSTATIC COMPOSITION, PREPARATION METHOD THEREFOR, AND USE THEREOF” (SHENZHEN EULIKAN BIOTECHNOLOGY CO., LTD, priority 2020, published 2022).
The name of at least one read-out is uncertain. Some entries share one result that the patent states for a list of compounds.

Test system: Candida albicans ATCC 10231
Experiment: Inhibition rate after 20 minutes of action, Appendix C of GB 15979-2002
Format: cell-based
Conditions: Table 12; single ingredient solution, pH 3.6, 20 minutes of action

Compound	Inhibition rate [%]
CCC(=O)O [2.00% propionic acid, propionic acid]	18.22

Same assay, conditions: Table 12; single ingredient solutions, pH 3.8, 20 minutes of action

Compound	Inhibition rate [%]
CCCCCCCCCCCC(=O)O [0.001% lauric acid, lauric acid]	10.65
CCCCCCCCCCC(=O)O [0.001% undecylic acid, undecylic acid]	−14.39
CCCCCCCCCC(=O)O [0.002% capric acid, capric acid]	6.12
CCCCCCCC(=O)O [0.02% caprylic acid, caprylic acid]	9.96
CCCCCCC(=O)O [0.07% heptanoic acid, heptanoic acid]	2.31
CCCCCCCCC(=O)O [0.009% nonanoic acid, nonanoic acid]	17.04
CCCCC(=O)O [0.60% valeric acid, valeric acid]	−0.51
CCCC(=O)O [2.20% butyric acid, butyric acid]	3.78

Same assay, conditions: Table 20; pH 3.8, 20 minutes of action

Compound	inhibition rates against Candida albicans [%]
CCCCCCCCC(=O)O [0.03% nonanoic acid, nonanoic acid]	≥ 50
CCCCCCCC(=O)O [0.05% caprylic acid, caprylic acid]	≥ 50
CCCCCCCCCCCC(=O)O [0.006% lauric acid, lauric acid]	≥ 50
C=CCCCCCCCCC(=O)O [0.006% undecylenic acid, undecylenic acid]	≥ 50
CCCCCCCCCCC(=O)O [0.006% undecylic acid, undecylic acid]	≥ 50
CCCCCCCCCC(=O)O [0.008% capric acid, capric acid]	≥ 50
CCCCCCC(=O)O [0.30% heptanoic acid, heptanoic acid]	≥ 50
CCCC(=O)O [3.00% butyric acid, butyric acid]	≥ 50
O=C(O)CCCCCC(=O)O [5.00% pimelic acid, pimelic acid]	≥ 50

Test system: Escherichia coli ATCC 25922
Experiment: as above
Format: cell-based
Conditions: Table 20; pH 3.8, 20 minutes of action

Compound	inhibition rates against Escherichia coli [%]
CCCCCCCCC(=O)O [0.03% nonanoic acid, nonanoic acid]	100.00
CCCCCCCC(=O)O [0.05% caprylic acid, caprylic acid]	100.00
CCCCCCCCCCCC(=O)O [0.006% lauric acid, lauric acid]	100.00
C=CCCCCCCCCC(=O)O [0.006% undecylenic acid, undecylenic acid]	100.00
CCCCCCCCCCC(=O)O [0.006% undecylic acid, undecylic acid]	100.00
CCCCCCCCCC(=O)O [0.008% capric acid, capric acid]	100.00
CCCCCCC(=O)O [0.30% heptanoic acid, heptanoic acid]	100.00
CCCC(=O)O [3.00% butyric acid, butyric acid]	100.00
O=C(O)CCCCCC(=O)O [5.00% pimelic acid, pimelic acid]	100.00

Test system: Staphylococcus aureus ATCC 6538
Experiment: as above
Format: cell-based
Conditions: Table 20; pH 3.8, 20 minutes of action

Compound	inhibition rates against Staphylococcus aureus [%]
CCCCCCCCC(=O)O [0.03% nonanoic acid, nonanoic acid]	100.00
CCCCCCCC(=O)O [0.05% caprylic acid, caprylic acid]	100.00
CCCCCCCCCCCC(=O)O [0.006% lauric acid, lauric acid]	100.00
C=CCCCCCCCCC(=O)O [0.006% undecylenic acid, undecylenic acid]	100.00
CCCCCCCCCCC(=O)O [0.006% undecylic acid, undecylic acid]	100.00
CCCCCCCCCC(=O)O [0.008% capric acid, capric acid]	100.00
CCCCCCC(=O)O [0.30% heptanoic acid, heptanoic acid]	100.00
CCCC(=O)O [3.00% butyric acid, butyric acid]	100.00
O=C(O)CCCCCC(=O)O [5.00% pimelic acid, pimelic acid]	100.00
